PubChem BioAssay AID651550 (National Center for Advancing Translational Sciences (NCATS), 2012)
Out of some 360,000 compounds screened, about 1,100 (0.31%) were called active. The inconclusive results got no clear call from the source; some entries with a clear call stand among them for comparison. No stated cut-off is given here; in the data, active means activity change below about -80%; inconclusive means mostly about -51% to -80%; inactive means weaker than that.

Target: RAC-alpha serine/threonine-protein kinase (Homo sapiens) (UniProt P31749)
Assay: HTS Assay for Inhibitors of Akt Phophorylation: Primary Screen
Conditions: Neuro2A IGF-stimulated pAkt S473 HTRF, 20 min; at 50 µM, hits give low values
Summary of the method: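 Neuro2A cells in DMEM with 0.5% FBS, overnight at 37 deg C, given compound at single 50 µM final, then IGF (6 nM final) for 20 min at 37 deg C. Lysed; phospho-Akt Ser473 by HTRF after 24 h, 665/615 ratio.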
On the % scale 0 is the no-effect control and ±100 the full control effect.

Q: For `CCCCNC(=O)Nc1ccnn1C1CCCCC1`, which activity change is on record?
A: inactive: -0.877%

Q: `N#C/C(=C\c1ccc([N+](=O)[O-])cc1)C(=O)NCCCn1ccnc1` was tested. Which activity change did it give?
A: inactive

Q: How did the activity change turn out when `COc1ccc(CNc2nc3ccccc3s2)cc1OC` was run?
A: inactive

Q: Which activity change does the source give for `COC(=O)c1ccccc1NC(=O)Cn1cnc2c(cnn2-c2ccc(C)c(C)c2)c1=O` here?
A: inconclusive: -72.3%

Q: Which activity change does the source give for `FC(F)(F)c1cc(-c2ccco2)nc(NCc2ccc(Cl)cc2)n1` here?
A: active: -102%

Q: With `COCCN(CCOC)S(=O)(=O)c1ccc(C(=O)NC2CCN(Cc3ccccc3)CC2)cc1` as the compound, how does the activity change read?
A: active: -113%

Q: For `O=C(Nc1ccccc1C(=O)NC(Cc1ccccc1)C(=O)O)c1ccco1` (stereo unspecified), which activity change is on record?
A: inactive

Q: Which activity change does the source give for `COc1cccc(/C=N/NC(=O)C(c2ccncc2)N2CCOCC2)c1` (stereo unspecified) here?
A: inactive

Q: `Cc1nc2cc(NC(=O)CSc3nc4c(C)cccc4cc3C#N)ccc2s1` was tested. Which activity change did it give?
A: active: -95.1%

Q: For `CCOC(=O)C(C)(C)C(=O)C(C)(C)C(O)c1ccccn1` (stereo unspecified), which activity change is on record?
A: inconclusive: -58.3%

Q: `CC1Cc2cc(/C(O)=C3\C(=O)C(=O)N(CCN4CCOCC4)C3c3ccccc3F)ccc2O1` (stereo unspecified) was tested. Which activity change did it give?
A: inconclusive: -60%

Q: Which activity change does the source give for `Nc1[nH]n(-c2ccccc2)c(=O)c1N=Nc1ccc2c(c1)OCCO2` here?
A: inactive

Q: Which activity change does the source give for `COc1ccc(Cl)cc1NC(=O)c1ccc2c(SCC(=O)O)c3c(nc2c1)CCCC3` here?
A: inactive

Q: With `CCOC(=O)C1C(=O)CC(C)(O)C(C(=O)OCC)C1c1ccc(F)cc1` (stereo unspecified) as the compound, how does the activity change read?
A: inconclusive: -72%

Q: `O=C(Nc1cccc2ccccc12)N1CCN(c2ccc(F)cc2)CC1` was tested. Which activity change did it give?
A: inconclusive: -52.2%

Q: How did the activity change turn out when `CCOC(=O)c1cnn(-c2nc(SC)nc3sc4c(c23)CCC4)c1N` was run?
A: inconclusive: -64.9%

Q: `N#Cc1c(-c2cccs2)cc(C2CC2)nc1SCC(N)=O` was tested. Which activity change did it give?
A: inconclusive: -72.2%

Q: Which activity change does the source give for `NC(=O)c1ccc(NS(=O)(=O)c2ccccc2F)cc1` here?
A: inconclusive: -57.9%

Q: Which activity change does the source give for `O=C(CCCCCn1c(=S)[nH]c2ccccc2c1=O)NCc1ccc2c(c1)OCO2` here?
A: inconclusive: -66.8%

Q: For `O=C1c2cnc3nc(SCc4ccccc4)nn3c2CC2c3ccccc3CCN12` (stereo unspecified), which activity change is on record?
A: inconclusive: -53.1%

Q: With `O=C(CN1C(=O)CNC1=O)Nc1cccc(C(F)(F)F)c1` as the compound, how does the activity change read?
A: active: -101%

Q: How did the activity change turn out when `Clc1ccc(-c2cn3nc4c(nc3n2)CCCC4)cc1` was run?
A: inconclusive: -58.4%

Q: With `Oc1c(C=NCc2ccncc2)sc2ccccc12` as the compound, how does the activity change read?
A: active: -103%

Q: `CCOC(=O)CSc1nc(N)c(C#N)c(-c2ccc(OCC)cc2)c1C#N` was tested. Which activity change did it give?
A: inconclusive: -62.4%

Q: For `COc1cc(OC)cc(-c2nnc(SCC(=O)N3c4ccccc4Sc4ccccc43)o2)c1`, which activity change is on record?
A: inconclusive: -76.9%

Q: How did the activity change turn out when `Cc1cccc(C(=O)NC2CCN(C(=O)N3CCOCC3)CC2)c1` was run?
A: inconclusive: -78.3%
